Data: patent publication US20250042956A1
No constants are given. Whether binding was seen depends on the method and setting. A result given as binding can be weak or reduced; the word gives no strength. For some of these results: Tags and fused reporters may be left off the sequences shown. For some of these results: In cells and extracts the contact can be indirect.

Columns and labels:
[1] = target: MOM2 (Arabidopsis thaliana); assay: IP-MS, pPHD1:PHD1-FLAG line
[2] = target: MOM2 (yeast two hybrid GAL4 fusion) (Arabidopsis thaliana); assay: yeast two hybrid
[3] = target: AT5G08450.1 HDC1 (Arabidopsis thaliana); assay: IP-MS

B1: PHD1-FLAG (protein, not shown: small tags and cut ends)
chain: MSLHVKGPVCQTCGDIGFEEALVFCDSCMFESIHRYCLGITPIPFTEYITWICEDCDNSESDSDCNEVDQTVKKKKKSRNQPLVVLAEDNVLQEPLEGSKREESSCSRKPHELTCLDGNGESVLEAADSSSVPDHSSCTSKRKEVDQTANLGHILERSEKKKKKKKKKKSINHSPPVLAVEDHELQGTTNVVEPVEVSSSSPTKETMESKRQESSDSRKPHELTCLVGDSETANSSSVPEHNSCAVKKRKLSSGNKQIQLADGSSSCRVAESNMPLTLTSRNYRAQPIKIPIWRGLMSVKGGNSCTMDGIVAHVSSLACPKVHETASSLKGRLSAEILPRLEVWPKTFLKNGGPKDESVALFFFPSSESNDEKVFDSLVDKMKKNDSAMRCVLNDAELLLFTSYMLPKDSWTFNSKYYLWGVFKPRQTSRY
Question: B1 was tested. Which binding [1] did it give?
Answer: binds

B2: PIAL2 (yeast two hybrid GAL4 fusion) (protein, not shown: large carriers)
chain: MSTAAAARPVAGTGLREKTAASLVNSFRLASVTQRLRYHIQDGAKVDPKEFQICCISFAKGIDFAIANNDIPKKVEEFPWLLKQLCRHGTDVYTKTALMVLMISVKHACHLGWFSDSESQELIALADEIRTCFGSSGSTSPGIKSPGSTFSQIMERFYPFVKLGHVLVSFEVKAGYTMLAHDFYISKNMPHSLQEKIRLFVAQTDNIDTSACISNPPEVSFLLNGKGVEKRVNIAMDTGPQLPTNVTAQLKYGTNLLQVMGNFKGNYIIIIAFTGLVVPPEKPVLKDYLQSGVIEASPDSDIIEGPSRVSLSCPISRKRIKLPVKGQLCKHLQCFDFSNYVHINMRNPTWRCPHCNQPVCYPDIRLDQNMAKILKDVEHNAADVIIDAGGTWKVTKNTGETPEPVREIIHDLEDPMSLLNSGPVVFDLTGDDDAELEVFGDNKVEDRKPCMSDAQGQSNNNNTNKHPSNDDYSSIFDISDVIALDPEILSALGNTAPQPHQASNTGTGQQYSNLSQIPMSIDPMPVPVPFSQTPSPRDRPATTSTVFTIPNPSPQYSQVHASPVTPTGTYLGRTTSPRWNQTYQSQAPPMTTPYTSRKVSVPVTSQSPANVSSFVQSQHVPRVLSQPNNYGVRGLTSSHASTSRQHPSGPTVQSVSRLSDLVDVDLTVPDTSNWRPRMRGSLVPGSHSTALDHMIIRPSQQSQTSTRLNSSQPVQTPSVQTSQAQSPFTTAAYRTETVLGNRNHPVPAPPGIVRPTGPTS
Question: B2 was tested. Which binding [2] did it give?
Answer: binds

B3: TRBIP1 (bait of the TRBIP1 IP-MS) (protein, not shown: small tags and cut ends)
chain: METNPCDMNQLDSDSHLPPRKRLLAGFKKFNSNGINGSSPSDFASSSSTSNSNGSSSASTNVQTHLGNLLSSPFNNDQSPEELVEATRSAAALAVKAAKAARAIANEKALISAKAIAAAKRALELVDSFPKEAMADCKERSPRKNKQKKHVPVELLYSKGQLRDEEDDLARRLHRAIDNTSYPRVLRTSEENGQRYKKQKKNKSVVEGGSSSIIVTGSMKDIAGVVDSDSSYEGLEIARSNRDEADSMLMMEKSGEESNSLVKRRGRVKLKKLPLSICNSRNQENGTSSASPLPVAQPQEDGGAITVIAGSSSWKCQDIKAPECVKQNKAVRS
Question: Which binding [3] does the source give for B3 here?
Answer: binds

B4: TRBIP2 (bait of the TRBIP2 IP-MS) (protein, not shown: small tags and cut ends)
chain: MATNACLESDSLLPPRKRLLAGFKNQNSRISNESPSPPFASSSSSTTTSNGSSASAVVHTHHLDHLLNDQTRSPEELAQASKATAALAVKVAKAARATANEKAIIASKAVAAAKNALELFASFPAAETVSCKEPRLIRAINNSPRVLTDCSGHRNKKQKTLTSTMNDGNDVAGVVDSDDGTRVNGKLLLCDNTLKEKTEEESSSLGKRRGRVKLPLSMCAYKDQENGITLEENNLSVSKSEGYNGGVAQVIERPSWKCQDLKSPECVKQNKVVRS
Question: How did the binding [3] turn out when B4 was run?
Answer: binds
